Source: the supplement of paper PMC8728848
The other results are listed elsewhere or left out.

Key:
Assay in all cases: glycan array binding signal (z-score within array); higher = stronger binding
Conditions in all cases: glycan notation: IUPAC condensed, linker removed
[1] = target: Gal(a1-3)[Gal(a1-4)]Gal(b1-4)GlcNAc
Procedure, shortened: (§1)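 Glycan array data were curated from 3228 arrays in the Consortium for Functional Glycomics database and kept only where the protein sequence was available. Glycan names were converted to IUPAC-condensed notation, and columns mapping to the same glycan were averaged. The binding signal is a within-array Z-score, averaged across arrays of the same protein sequence at different concentrations or buffers and across linkers. Negative Z-scores can be read as non-binding.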

[2] = target: Gal(a1-4)Gal(b1-3)GlcNAc(b1-2)Man(a1-3)[Gal(a1-4)Gal(b1-3)GlcNAc(b1-2)Man(a1-6)]Man(b1-4)GlcNAc(b1-4)GlcNAc
Procedure, shortened: as §1

[3] = target: Gal(a1-4)Gal(b1-4)Glc
Procedure, shortened: as §1

[4] = target: Gal(a1-4)Gal(b1-4)GlcNAc
Procedure, shortened: as §1

[5] = target: Gal(a1-4)Gal(b1-4)GlcNAc(b1-2)Man(a1-3)[Gal(a1-4)Gal(b1-4)GlcNAc(b1-2)Man(a1-6)]Man(b1-4)GlcNAc(b1-4)GlcNAc
Procedure, shortened: as §1

[6] = target: Gal(a1-4)Gal(b1-4)GlcNAc(b1-3)Gal(b1-4)Glc
Procedure, shortened: as §1

[7] = target: Gal(a1-4)GlcNAc
Procedure, shortened: as §1

[8] = target: Gal(a1-6)Glc
Procedure, shortened: as §1

[9] = target: Gal(b1-2)Gal
Procedure, shortened: as §1

[10] = target: Gal(b1-3)Gal
Procedure, shortened: as §1

[11] = target: Gal(b1-3)Gal(b1-4)GlcNAc
Procedure, shortened: as §1

[12] = target: Gal(b1-3)GalNAc
Procedure, shortened: as §1

[13] = target: Gal(b1-3)GalNAc(a1-3)[Fuc(a1-2)]Gal(b1-4)Glc
Procedure, shortened: as §1

[14] = target: Gal(b1-3)GalNAc(a1-3)[Fuc(a1-2)]Gal(b1-4)GlcNAc
Procedure, shortened: as §1

[15] = target: Gal(b1-3)GalNAc(b1-3)Gal
Procedure, shortened: as §1

[16] = target: Gal(b1-3)GalNAc(b1-3)Gal(a1-4)Gal(b1-4)Glc
Procedure, shortened: as §1

[17] = target: Gal(b1-3)GalNAc(b1-4)Gal(b1-4)Glc
Procedure, shortened: as §1

[18] = target: Gal(b1-3)GalNAc(b1-4)[Neu5Ac(a2-3)]Gal(b1-4)Glc
Procedure, shortened: as §1

[19] = target: Gal(b1-3)GlcNAc
Procedure, shortened: as §1

[20] = target: Gal(b1-3)GlcNAc(a1-3)Gal(b1-4)GlcNAc
Procedure, shortened: as §1

[21] = target: Gal(b1-3)GlcNAc(a1-6)Gal(b1-4)GlcNAc
Procedure, shortened: as §1

[22] = target: Gal(b1-3)GlcNAc(b1-2)Man
Procedure, shortened: as §1

[23] = target: Gal(b1-3)GlcNAc(b1-2)Man(a1-3)[Gal(b1-3)GlcNAc(b1-2)Man(a1-6)]Man(b1-4)GlcNAc(b1-4)GlcNAc
Procedure, shortened: as §1

[24] = target: Gal(b1-3)GlcNAc(b1-2)Man(a1-3)[Gal(b1-3)GlcNAc(b1-2)Man(a1-6)]Man(b1-4)GlcNAc(b1-4)[Fuc(a1-6)]GlcNAc
Procedure, shortened: as §1

[25] = target: Gal(b1-3)GlcNAc(b1-2)Man(a1-3)[GlcNAc(b1-4)][Gal(b1-3)GlcNAc(b1-2)Man(a1-6)]Man(b1-4)GlcNAc(b1-4)GlcNAc
Procedure, shortened: as §1

[26] = target: Gal(b1-3)GlcNAc(b1-2)[Gal(b1-3)GlcNAc(b1-6)]Man(a1-6)[Gal(b1-3)GlcNAc(b1-2)Man(a1-3)]Man(b1-4)GlcNAc(b1-4)GlcNAc
Procedure, shortened: as §1

[27] = target: Gal(b1-3)GlcNAc(b1-3)Gal(b1-3)GlcNAc
Procedure, shortened: as §1

[28] = target: Gal(b1-3)GlcNAc(b1-3)Gal(b1-4)Glc
Procedure, shortened: as §1

[29] = target: Gal(b1-3)GlcNAc(b1-3)Gal(b1-4)GlcNAc
Procedure, shortened: as §1

[30] = target: Gal(b1-3)GlcNAc(b1-3)Gal(b1-4)GlcNAc(b1-2)Man(a1-3)[Gal(b1-3)GlcNAc(b1-3)Gal(b1-4)GlcNAc(b1-2)Man(a1-6)]Man(b1-4)GlcNAc(b1-4)GlcNAc
Procedure, shortened: as §1

[31] = target: Gal(b1-3)GlcNAc(b1-3)Gal(b1-4)GlcNAc(b1-2)[Gal(b1-3)GlcNAc(b1-3)Gal(b1-4)GlcNAc(b1-6)]Man(a1-6)[Gal(b1-3)GlcNAc(b1-3)Gal(b1-4)GlcNAc(b1-2)Man(a1-3)]Man(b1-4)GlcNAc(b1-4)[Fuc(a1-6)]GlcNAc
Procedure, shortened: as §1

[32] = target: Gal(b1-3)GlcNAc(b1-3)Gal(b1-4)GlcNAc(b1-3)Gal(b1-4)GlcNAc(b1-2)[Gal(b1-3)GlcNAc(b1-3)Gal(b1-4)GlcNAc(b1-3)Gal(b1-4)GlcNAc(b1-6)]Man(a1-6)[Gal(b1-3)GlcNAc(b1-3)Gal(b1-4)GlcNAc(b1-3)Gal(b1-4)GlcNAc(b1-2)Man(a1-3)]Man(b1-4)GlcNAc(b1-4)[Fuc(a1-6)]GlcNAc
Procedure, shortened: as §1

[33] = target: Gal(b1-3)GlcNAc(b1-3)Gal(b1-4)GlcNAc(b1-6)[Gal(b1-3)GlcNAc(b1-3)]Gal(b1-4)Glc
Procedure, shortened: as §1

[34] = target: Gal(b1-3)GlcNAc(b1-3)Gal(b1-4)[Fuc(a1-3)]GlcNAc
Procedure, shortened: as §1

[35] = target: Gal(b1-3)GlcNAc(b1-3)Gal(b1-4)[Fuc(a1-3)]GlcNAc(b1-6)[Gal(b1-3)GlcNAc(b1-3)]Gal(b1-4)Glc
Procedure, shortened: as §1

[36] = target: Gal(b1-3)GlcNAc(b1-3)GalNAc
Procedure, shortened: as §1

[37] = target: Gal(b1-3)GlcNAc(b1-6)Gal(b1-4)GlcNAc
Procedure, shortened: as §1

[38] = target: Gal(b1-3)GlcNAc(b1-6)GalNAc
Procedure, shortened: as §1

B1: Nc3LysM-2 (protein)
chain: AHVLQARQSVSCDFATAANTGDTCASFAAAWGITEAAFAKLNPGVSCPGNLIAGSEYCVIGTVSTGAPTTTKAATTSTTPPTTTTTTKATTLSTSTTSVSPTGPSPQMPSITSTCNKFYQVQSGDGCWSIEQAQGVSASDFMAWNKAVDAQCDNLWLGYYVCVGVKGGSSPPPTTTTKPASSSAPTPQMPNTVSNCKKFHKVVSGDGCWAIEQAAGISASDFAKWNPYVDAACDNLWLGYYVCIGV
- glycan array binding signal (z-score) [1]: -1.03
- glycan array binding signal (z-score) [2]: -0.185
- glycan array binding signal (z-score) [3]: 1.39
- glycan array binding signal (z-score) [4]: -0.363
- glycan array binding signal (z-score) [5]: 0.285
- glycan array binding signal (z-score) [6]: -0.021
- glycan array binding signal (z-score) [7]: 0.991
- glycan array binding signal (z-score) [8]: 0.44
- glycan array binding signal (z-score) [9]: -0.601
- glycan array binding signal (z-score) [10]: -1.49
- glycan array binding signal (z-score) [11]: -0.043
- glycan array binding signal (z-score) [12]: -1.27
- glycan array binding signal (z-score) [13]: 1.21
- glycan array binding signal (z-score) [14]: -1.14
- glycan array binding signal (z-score) [15]: 1.15
- glycan array binding signal (z-score) [16]: -0.143
- glycan array binding signal (z-score) [17]: 1.81
- glycan array binding signal (z-score) [18]: -0.127
- glycan array binding signal (z-score) [19]: 0.069
- glycan array binding signal (z-score) [20]: -0.723
- glycan array binding signal (z-score) [21]: 0.159
- glycan array binding signal (z-score) [22]: -1.22
- glycan array binding signal (z-score) [23]: 1.47
- glycan array binding signal (z-score) [24]: -1.79
- glycan array binding signal (z-score) [25]: 0.501
- glycan array binding signal (z-score) [26]: -0.613
- glycan array binding signal (z-score) [27]: -0.944
- glycan array binding signal (z-score) [28]: -0.118
- glycan array binding signal (z-score) [29]: 0.183
- glycan array binding signal (z-score) [30]: -0.38
- glycan array binding signal (z-score) [31]: 2.73
- glycan array binding signal (z-score) [32]: 1.34
- glycan array binding signal (z-score) [33]: 0.076
- glycan array binding signal (z-score) [34]: -0.806
- glycan array binding signal (z-score) [35]: 0.403
- glycan array binding signal (z-score) [36]: -0.034
- glycan array binding signal (z-score) [37]: -1.49
- glycan array binding signal (z-score) [38]: 0.973
